The results in this text go back to patent publication US20040110844A1, “Anti-tumor pharmaceutical composition comprising N-vanillyl fatty acid amide” (KUREHA CHEMICAL INDUSTRY COMPANY, Limited, priority 2002, published 2004).

The series can be described thus: Degrees of hotness at the relative value by organoleptic examination. The conditions noted are these: minimum value of hotness detected with the tongue of examiner; capsaicin regarded as 1.

For `CC/C=C\C/C=C\C/C=C\C/C=C\C/C=C\C/C=C\CCC(=O)NCc1ccc(O)c(OC)c1` [Dohevanil, N-vanillyl-4,7,10,13,16,19-Docosahexaenamide], the “degree of hotness (relative value)” value is recorded as 10^−5.

Take `COc1cc(CNC(=O)CCCCC=CC(C)C)ccc1O` [capsaicin, 8-methyl-N-vanillyl-6-nonenamide]: the “degree of hotness (relative value)” value is listed as 1.
